1 sequence from paper PMC6072106 can be followed below.

The exact form of at least one protein or probe is not confirmed. A weaker result is weaker than the reference pair of the same experiment. At least one verdict was read from the data and is not stated in words by the source. Where a protein sequence is shown, tags need not be part of it.

This data set addresses T1, Fis (UniProt Q88DK4).
T1 sequence (looked up, limits assumed): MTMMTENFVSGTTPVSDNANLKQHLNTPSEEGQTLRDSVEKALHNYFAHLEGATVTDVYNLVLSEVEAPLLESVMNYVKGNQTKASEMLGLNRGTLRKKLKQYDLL
The data set is described as follows: EMSA with LF2 competition. The settings on record: 0.46 uM Fis, competed by LF2 less efficiently than Fis-nuo2-mut DNA, comparison with wild type not stated for EMSA; EMSA: 24 mM Tris/HCl pH 7.5, 50 mM KCl, 10 mM MgCl2, 1 mM CaCl2, 0.1 mM EDTA, 5% glycerol, 0.05 ug/ul BSA, 0.05 ug/ul salmon sperm DNA, 20 ul, 20 min room temperature; recombinant protein; protein details: His-tag; label: 32P (5'); probe letters rebuilt from the primers and the genome.

On to “GCGCGTAATGCCCGAATTTCAAGGCTCTCAGCCAGTTACGAACGTTTTTTGTACTTAATCCTACGAATAAGGTTGCGAGTCGAATTTTACTTGCACCAGGTTTACCCATAAAATCAGCGCGATTGATCCGGCTGCGACATTTGGTCACTG (double strand) [Fis-nuo1-mut-Fis-nuo2]”, for which the binding result is recorded as “binds more weakly”.
